Reference: publication PMC10014883
Results are given in words; binding and its absence hold for the method and conditions named. Binding seen in cells or lysates may run through a third protein. Some binding calls cover weakened binding; strength is not graded here.

Amino acid sequences for entries named in this document (tags omitted).
UniProt P58462: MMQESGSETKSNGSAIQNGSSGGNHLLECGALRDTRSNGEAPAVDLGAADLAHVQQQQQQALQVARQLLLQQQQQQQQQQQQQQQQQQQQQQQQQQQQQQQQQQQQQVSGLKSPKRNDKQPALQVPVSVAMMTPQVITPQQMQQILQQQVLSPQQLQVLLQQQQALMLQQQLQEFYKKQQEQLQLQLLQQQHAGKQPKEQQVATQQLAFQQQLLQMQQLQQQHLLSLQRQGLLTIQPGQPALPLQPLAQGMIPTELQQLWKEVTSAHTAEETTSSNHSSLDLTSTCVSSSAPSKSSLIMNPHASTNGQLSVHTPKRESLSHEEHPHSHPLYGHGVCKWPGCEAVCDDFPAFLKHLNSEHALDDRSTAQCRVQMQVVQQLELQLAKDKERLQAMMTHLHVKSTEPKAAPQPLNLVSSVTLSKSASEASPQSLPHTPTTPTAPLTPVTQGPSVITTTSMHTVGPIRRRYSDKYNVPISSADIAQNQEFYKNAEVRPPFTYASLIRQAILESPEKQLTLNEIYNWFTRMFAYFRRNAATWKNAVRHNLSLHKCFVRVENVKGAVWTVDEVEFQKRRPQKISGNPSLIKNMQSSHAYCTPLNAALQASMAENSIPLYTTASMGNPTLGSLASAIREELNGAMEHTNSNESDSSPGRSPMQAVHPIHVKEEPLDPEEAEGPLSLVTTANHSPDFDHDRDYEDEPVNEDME

Molecular target: FOXP1 (mouse (endogenous in BMDMs)) (UniProt P58462)
Assay: co-IP; lysates of BMDMs after osteoclast induction (Pierce IP Lysis Buffer) immunoprecipitated with anti-FOXP1 antibody or normal rabbit IgG and protein A-Sepharose; immunoblotting for FOXP1 and BRD9

- binding: binds
B1: Bromodomain-containing protein 9 (BRD9) (protein, UniProt Q3UQU0 1-596)
chain: MGKKHKKHKAEWRSSYEDYTDTPLEKPLKLVLKVGGSEVTELSGSGHDSSYYDDRSDHERERHREKKKKKKKKSEKEKHLDEEERRKRKEEKKRKREKEHCDSEGEADAFDPGKKVEVEPPPDRPVRACRTQPAENESTPIQRLLEHFLRQLQRKDPHGFFAFPVTDAIAPGYSMIIKHPMDFGTMKDKIVANEYKSVTEFKADFKLMCDNAMTYNRPDTVYYKLAKKILHAGFKMMSKAALLGSEDPAAEEPVPEVVPVQVETTKKSKKPSREVISCMFEPEGNACSLTDSTAEEHVLALVEHAADEARDRINRFLPGGKMGYLKKLGDGSLLYSVVNAPEPDADEEETHPVDLSSLSSKLLPGFTTLGFKDERRNKVTFLSSASTALSMQNNSVFGDLKSDEMELLYSAYGDETGVQCALSLQEFVKDAGSYSKKMVDDLLDQITGGDHSRMIFQLKQRRSIPMRPADEMKVGDPLGESGGPVLDFMSMKQYPDVSLDVSMLSSLGKVKKELDHEDSHLNLDETARLLQDLHEAQAERGGSRPSSNLSSLSTASEREHPPPGSPSRLSVGEQPDVAHDPYEFLQSPEPAAPAKN
